Assay results taken from the supplement of paper PMC5949888.
Most values lie at the floor of the assay. Slopes are relative: functional sequences can read slightly below zero.

tested on: Saccharomyces cerevisiae PS128 hsf1 delta, HSF1(1-493) fusion; assay: growth estimate (transactivation domain function in HSF1 fusion, heat-shock survival) (a.u. (slope of normalised read count over time)); higher = stronger growth at 37°C, i.e. more transactivation activity; details: library: random library

Substance | growth estimate
SHKRHLGLSQVVVQQNDARS | < -0.25
QGRAWS | < -0.25
RSYVFKGWRSV | < -0.25
NNAPATAVWLTVSKFGTHMK | < -0.25
HKFVVTTEKKQGSRSHTEPL | < -0.25
LVFRVVGAFSRAGFVVAHRY | < -0.25
TGTVRPG | < -0.25
LQAWRMGPRD | < -0.25
TLYSATSGVFDCNSELLSSR | < -0.25
PIDDATRPWKAARESSAAAP | < -0.25
RYVRCRTVAPIGASSTLGMR | < -0.25
GTIFWWFRGSGESATPSLDN | 0.116
VRNSLPVLLGAGFCNRQA | < -0.25
VGSARAGGPGCSVRATIA | < -0.25
LDILYGSTQWVPTP | < -0.25
LCQPEMRRVKPCQMREGQRG | < -0.25
TCRALKGFRRALDRAPLPLA | < -0.25
GNRRGSEVKSRASVEFSG | < -0.25
LDIPSFERGRMRAGPEARGL | < -0.25
RYERHQSQKRD | < -0.25
VMAMVNVRGF | < -0.25
EVKLLHASSSLAVLANGSSR | < -0.25
TLPDYRGQR | < -0.25
SSIKVLVQARSLYAA | < -0.25

Reprinted at random: five records from the list
Substance | growth estimate
LVFRVVGAFSRAGFVVAHRY | < -0.25
RYERHQSQKRD | < -0.25
LCQPEMRRVKPCQMREGQRG | < -0.25
SSIKVLVQARSLYAA | < -0.25
LDILYGSTQWVPTP | < -0.25

More records follow.

Substance | growth estimate
RNVISSY | < -0.25
RRSACLPLFTRPVTRFGDL | < -0.25
GSAESSLHAMRAHAARGFGA | < -0.25
IRQISSARRLINRPDNYVII | -0.246
GHMQTARTRGRALERFSVCC | < -0.25
DRKLQRASLMKLSRKVPH | < -0.25
GVRTKVDHTVF | < -0.25
RTFLWRITQPPIVQGLG | < -0.25
DSARLWHWPERCLTAAVMPA | < -0.25
RPMGIKVAMGDWTHTGPPW | < -0.25
AVVCIDGVILL | < -0.25
EFDAQHGQA | < -0.25
LVG | < -0.25
FPAGPVRARSQAVLNLGPYV | < -0.25
YTDVAVI | < -0.25
PGHWSHSLIRTRP | < -0.25
LVDIYYPGPGIGRGVNMARR | < -0.25
SADQAPGLECRCS | < -0.25
GFRGGHSAAGCVVS | < -0.25
TCDAVEIKAHCQIGLRRSTR | 0.0112
WTPTSVRIRICFSFN | < -0.25
STRGAIFVGRGPINEGPAIS | < -0.25
LKGPYIGWPSKSLRSLIVRK | < -0.25
RRVTASGGVNRMDTANR | < -0.25

Substance | growth estimate
TGDNGTDI | < -0.25
VQKDLEISGYISMGIKCGSL | < -0.25
RCLIAFSR | < -0.25
VRLMNEDTGRKPI | < -0.25
NRRKPDSINPLLTVAQNRHG | < -0.25
NPVAQQAGRFTRRPTGIVKQ | -0.192
LEPYVWACYKIRSAEHVDCL | < -0.25
FGTRSSLDTRDSIITGPSDP | < -0.25
SEN | < -0.25
APTRTAGKFRCGYWG | < -0.25
MFVGRRTLLVLTRNRSLDSR | < -0.25
RVRPLPAQGSSCIAPR | < -0.25
GGGTDL | < -0.25
MRKHTFLGGDPLLVS | < -0.25
GHLVQHSVTRNPSGPVSDLA | < -0.25
FWKATLIPYQRENASPQPTR | < -0.25
ERPC | < -0.25
WARYLLRAIGLVAKVT | < -0.25
TRTYGLRAVDQRTAL | < -0.25
TPAGIETGAQEKWTELLTSS | < -0.25
RSVNKCAVPSRVVVRVRG | < -0.25
TKS | < -0.25
LCSAKLNMSTRGGLAACGGG | < -0.25
MGGTQAGRI | < -0.25

Rewritten as tab-separated lines: entries from further up
Substance	growth estimate
VQKDLEISGYISMGIKCGSL	< -0.25
APTRTAGKFRCGYWG	< -0.25
GHLVQHSVTRNPSGPVSDLA	< -0.25
MGGTQAGRI	< -0.25

Later entries

Substance | growth estimate
GPYCITSS | < -0.25
AGIYVELVDPCMQAVNQFES | < -0.25
VKRCMAN | < -0.25
GYPGPPSVKFSRGSRVRICS | < -0.25
TYFWLYLACSARLDCK | -0.25
CSPRTGRPTWGTHPRTYPRH | < -0.25
LQACCVTRSQIS | < -0.25
GASREDLVVNSFMALCGTSP | < -0.25
RLSLRGLDYGPARARAFKLG | < -0.25
GSGGVQGVMVVL | < -0.25
VRGRRPIGGVA | -0.0379
DLSHAKPL | < -0.25
TSASRKTT | < -0.25
AVRGVIRNGLSIFSIG | < -0.25
SVK | < -0.25
WFSEPKLRGQVVLTSLWARH | < -0.25
RTKWLQDVSAIVNVRGFVSG | < -0.25
VSYSCACDCGETFRTRLWTT | < -0.25
NLCL | < -0.25
FPRWLGGVVYHAAV | < -0.25
DVGGASSVLCV | < -0.25
VMDR | < -0.25
LRGVLWVRDGGPRMSRWRES | < -0.25
RKRLYRKEACR | < -0.25

Substance | growth estimate
SHRLFYL | < -0.25
RLWVDGQDGKQVTWTPNLRI | < -0.25
LRPAALPDTNRPTALPAARS | < -0.25
QTADIIAALMQS | < -0.25
LSLYRPAAPNFGR | < -0.25
LLYSTKYTARS | < -0.25
FVK | < -0.25
WCYRTRIH | < -0.25
SLSCVAIGW | < -0.25
AVGLDGCRQGGGLLTCIRAK | < -0.25
LYLGLKS | < -0.25
RQKCNRATRAILIGGRLSYW | < -0.25
VSYDVAFRVQFDRALGSSTT | < -0.25
GSNWR | < -0.25
VPVGVLP | < -0.25
EFARPRGAGKAGTSEWDVLF | < -0.25
HLSTGRCLSPCPPQNGQWLS | < -0.25
CYSCHLRALVDNMFRAVSMG | < -0.25
PREGRKGRSGFRIQSGSYDA | < -0.25
GLSMFDG | < -0.25
PEVITYVVSRAPE | < -0.25
GPDKAVRLRCAGPCNASKET | < -0.25
IANSEHVK | < -0.25
KRSAIISKSRQSLPQG | < -0.25

Substance | growth estimate
KTVDIGY | < -0.25
DGLLMRA | < -0.25
DLGVSRAGIDIAVIGCNASN | < -0.25
VCIESNWSSLLWVKTLFGGS | < -0.25
PSRLESLWLIGSS | < -0.25
AEGSRDIGVLIVDCFNLSFV | < -0.25
PLQRNVSNDVMCP | < -0.25
GAST | < -0.25
RTGLLEECRSCPMPHLGVSQ | < -0.25
GWISILRGLYASFECLYT | < -0.25
RCVSNSVCEFENGAVCDPAG | < -0.25
SRDEG | < -0.25
MIERIGGNEGLQVIKLVYDG | < -0.25
SPSRPKNLDTADAPSVVDLA | < -0.25
YLPTCSTP | < -0.25
YGCTVHLTTLILRLGLCRVS | < -0.25
SPCVRTIENLMP | < -0.25
QVKSVQVSSVSN | < -0.25
REGLRRSTELRARCPSCDSR | < -0.25
GRICRVGKAHAQSNFGMIGR | < -0.25
VMDP | < -0.25
VVRIKDCEF | < -0.25
SQTLEGPL | < -0.25
TFPHMDARFWFNIPVVSVRP | < -0.25
